{"source": "PubChem BioAssay AID686938 (Drosophila RNAi Screening Center, 2013)", "purpose": "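Knock-downs reducing store-operated calcium influx in Drosophila cells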 (primary screen)", "cells": "Drosophila S2R+ cells", "knock-down reagent": "long dsRNA against Drosophila genes, about 0.25 µg dsRNA per well, roughly 10,000 cells", "timing": "5 days of knock-down before the calcium assay", "challenge": "thapsigargin (SERCA pump blocker) to empty calcium stores; entry signal taken 4 min after adding it", "read-out": "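Per-well fluo-4 fluorescence in two replicates, unnormalised, measured in resting cells and 4 min after store depletion by the SERCA blocker thapsigargin; ratio of the two present in few wells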", "scale": "calcium entry signal: higher = stronger calcium signal after store depletion; resting calcium signal: higher = higher resting calcium signal", "active means": "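Hit if the duplicate-averaged plate z-score for entry over resting signal is under −3; wells with weak total dye signal (Fmax z < −2) or more than 5 off-targets removed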", "calls": "active = strongly reduced calcium entry; inactive = no strong reduction", "note": "In all, the deposit lists about 23,000 reagents; this is a random part of those that have a named target and a result. Of all reagents, 75 (0.33%) are marked active. 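Raw plate signals without normalisation; calls rest on plate z-scores that were not deposited; ratio present for only 364 wells.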 The record does not give: the dose of the treatment."}
{"Target gene": "ppk5", "DRSC id": "DRSC11492", "calcium entry signal, replicate 1 (fluorescence units)": 3.59e7, "calcium entry signal, replicate 2 (fluorescence units)": 3.41e7, "resting calcium signal, replicate 1 (fluorescence units)": 1.78e7, "resting calcium signal, replicate 2 (fluorescence units)": 1.60e7, "outcome": "inactive"}
{"Target gene": "HSPBAP1", "DRSC id": "DRSC14567", "calcium entry signal, replicate 1 (fluorescence units)": 2.47e7, "calcium entry signal, replicate 2 (fluorescence units)": 4.04e7, "resting calcium signal, replicate 1 (fluorescence units)": 1.24e7, "resting calcium signal, replicate 2 (fluorescence units)": 1.56e7, "outcome": "inactive"}
{"Target gene": "syd", "DRSC id": "DRSC10963", "calcium entry signal, replicate 1 (fluorescence units)": 5.39e7, "calcium entry signal, replicate 2 (fluorescence units)": 3.92e7, "resting calcium signal, replicate 1 (fluorescence units)": 3.55e7, "resting calcium signal, replicate 2 (fluorescence units)": 1.74e7, "outcome": "inactive"}
{"Target gene": "lncRNA:CR43242", "DRSC id": "DRSC03827", "calcium entry signal, replicate 1 (fluorescence units)": 4.76e7, "calcium entry signal, replicate 2 (fluorescence units)": 4.54e7, "resting calcium signal, replicate 1 (fluorescence units)": 2.24e7, "resting calcium signal, replicate 2 (fluorescence units)": 2.08e7, "outcome": "inactive"}

Continued (2 carried over from the part before).
{"Target gene": "syd", "DRSC id": "DRSC10963", "calcium entry signal, replicate 1 (fluorescence units)": 5.39e7, "calcium entry signal, replicate 2 (fluorescence units)": 3.92e7, "resting calcium signal, replicate 1 (fluorescence units)": 3.55e7, "resting calcium signal, replicate 2 (fluorescence units)": 1.74e7, "outcome": "inactive"}
{"Target gene": "lncRNA:CR43242", "DRSC id": "DRSC03827", "calcium entry signal, replicate 1 (fluorescence units)": 4.76e7, "calcium entry signal, replicate 2 (fluorescence units)": 4.54e7, "resting calcium signal, replicate 1 (fluorescence units)": 2.24e7, "resting calcium signal, replicate 2 (fluorescence units)": 2.08e7, "outcome": "inactive"}
{"Target gene": "Jhbp5", "DRSC id": "DRSC14240", "calcium entry signal, replicate 1 (fluorescence units)": 2.92e7, "calcium entry signal, replicate 2 (fluorescence units)": 5.42e7, "resting calcium signal, replicate 1 (fluorescence units)": 1.44e7, "resting calcium signal, replicate 2 (fluorescence units)": 7.51e7, "outcome": "inactive"}
{"Target gene": "CG3829", "DRSC id": "DRSC04423", "calcium entry signal, replicate 1 (fluorescence units)": 3.63e7, "resting calcium signal, replicate 1 (fluorescence units)": 1.80e7, "outcome": "inactive"}
{"Target gene": "Eig71Eh", "DRSC id": "DRSC11155", "calcium entry signal, replicate 1 (fluorescence units)": 5.30e7, "calcium entry signal, replicate 2 (fluorescence units)": 6.56e7, "resting calcium signal, replicate 1 (fluorescence units)": 2.34e7, "resting calcium signal, replicate 2 (fluorescence units)": 2.71e7, "outcome": "inactive"}
{"Target gene": "rho", "DRSC id": "DRSC08734", "calcium entry signal, replicate 1 (fluorescence units)": 3.62e7, "calcium entry signal, replicate 2 (fluorescence units)": 4.41e7, "resting calcium signal, replicate 1 (fluorescence units)": 1.89e7, "resting calcium signal, replicate 2 (fluorescence units)": 2.11e7, "outcome": "inactive"}
{"Target gene": "CG11356", "DRSC id": "DRSC19401", "calcium entry signal, replicate 1 (fluorescence units)": 3.43e7, "calcium entry signal, replicate 2 (fluorescence units)": 4.46e7, "resting calcium signal, replicate 1 (fluorescence units)": 1.71e7, "resting calcium signal, replicate 2 (fluorescence units)": 1.99e7, "outcome": "inactive"}
{"Target gene": "cuff", "DRSC id": "DRSC06315", "calcium entry signal, replicate 1 (fluorescence units)": 3.65e7, "calcium entry signal, replicate 2 (fluorescence units)": 4.17e7, "resting calcium signal, replicate 1 (fluorescence units)": 1.83e7, "resting calcium signal, replicate 2 (fluorescence units)": 1.86e7, "outcome": "inactive"}
{"Target gene": "ND-ASHI", "DRSC id": "DRSC18291", "calcium entry signal, replicate 1 (fluorescence units)": 3.49e7, "calcium entry signal, replicate 2 (fluorescence units)": 5.06e7, "resting calcium signal, replicate 1 (fluorescence units)": 1.76e7, "resting calcium signal, replicate 2 (fluorescence units)": 2.14e7, "outcome": "inactive"}
{"Target gene": "CG10307", "DRSC id": "DRSC04057", "calcium entry signal, replicate 1 (fluorescence units)": 2.83e7, "resting calcium signal, replicate 1 (fluorescence units)": 1.49e7, "outcome": "inactive"}
